Some of these results come from one statement about several compounds together.
Experiments:
Type in all cases: in vivo
Pyrenophora teres = experiment: Barley net blotch control test, foliar spray on barley (Test Examples 3, 9); conditions: barley (Mikamo Golden), inoculated 2 days after application
Sclerotinia sclerotiorum = experiment: Kidney bean Sclerotinia control test, foliar spray (Test Examples 4, 10); conditions: kidney bean (Nagauzura Saito), examined 4 days after inoculation
Sphaerotheca fuliginea = experiment: Cucumber powdery mildew control test, foliar spray (Test Examples 6, 12); conditions: cucumber (Sagami hanjiro), examined after 8 days
Septoria tritici = experiment: Wheat Septoria control test, foliar spray on wheat (Test Examples 5, 11); conditions: wheat (Apogee), inoculated 4 days after application
Rhynchosporium secalis = experiment: Barley scald control test, foliar spray on barley (Test Example 14); conditions: 200 ppm, barley (Mikamo Golden), inoculated 2 days after application

Measured: infected area of the treated plant relative to that of the untreated plant

CC(=NOC(C)(C)C)c1ccc(OCc2c(C)cccc2-n2nnn(C)c2=O)c(C)c1 [Compound 1, 1-{2-[2-methyl-4-{1-(tert-butoxy)imino-ethyl}-phenoxymethyl]-3-methyl-phenyl}-4-methyl-1,4-dihydrotetrazol-5-one]
≤ 30%: Pyrenophora teres; Test Example 3, 500 ppm | Sclerotinia sclerotiorum; Test Example 10, 200 ppm | Sphaerotheca fuliginea; Test Example 12, 200 ppm

CON=C(C)c1ccc(OCc2c(C)cccc2-n2nnn(C)c2=O)c(C)c1 [Compound 2, 1-{2-[2-methyl-4-(1-methoxyimino-ethyl)-phenoxymethyl]-3-methyl-phenyl}-4-methyl-1,4-dihydrotetrazol-5-one]
≤ 30%: Pyrenophora teres; Test Example 3, 500 ppm | Pyrenophora teres; Test Example 9, 200 ppm | Sclerotinia sclerotiorum; Test Example 4, 500 ppm | Sclerotinia sclerotiorum; Test Example 10, 200 ppm | Septoria tritici; Test Example 5, 500 ppm | Septoria tritici; Test Example 11, 200 ppm | Sphaerotheca fuliginea; Test Example 6, 500 ppm | Sphaerotheca fuliginea; Test Example 12, 200 ppm | Rhynchosporium secalis

CCON=C(C)c1ccc(OCc2c(C)cccc2-n2nnn(C)c2=O)c(C)c1 [Compound 3, 1-{2-[2-methyl-4-(1-ethoxyimino-ethyl)phenoxymethyl]-phenyl}-4-methyl-1,4-dihydrotetrazol-5-one]
≤ 30%: Pyrenophora teres; Test Example 3, 500 ppm | Pyrenophora teres; Test Example 9, 200 ppm | Sclerotinia sclerotiorum; Test Example 4, 500 ppm | Sclerotinia sclerotiorum; Test Example 10, 200 ppm | Septoria tritici; Test Example 5, 500 ppm | Septoria tritici; Test Example 11, 200 ppm | Sphaerotheca fuliginea; Test Example 6, 500 ppm | Sphaerotheca fuliginea; Test Example 12, 200 ppm | Rhynchosporium secalis

CON=C(C)c1ccc(OCc2c(Cl)cccc2-n2nnn(C)c2=O)c(C)c1 [Compound 4, 1-{2-[2-methyl-4-(1-methoxyimino-ethyl)phenoxymethyl]-3-chlorophenyl}-4-methyl-1,4-dihydrotetrazol-5-one]
≤ 30%: Pyrenophora teres; Test Example 3, 500 ppm | Pyrenophora teres; Test Example 9, 200 ppm | Sclerotinia sclerotiorum; Test Example 4, 500 ppm | Sclerotinia sclerotiorum; Test Example 10, 200 ppm | Septoria tritici; Test Example 5, 500 ppm | Septoria tritici; Test Example 11, 200 ppm | Sphaerotheca fuliginea; Test Example 6, 500 ppm | Sphaerotheca fuliginea; Test Example 12, 200 ppm | Rhynchosporium secalis

CON=C(C)c1ccc(OCc2c(OC)cccc2-n2nnn(C)c2=O)c(C)c1 [Compound 6, 1-{2-[2-methyl-4-(1-methoxyimino-ethyl)-phenoxymethyl]-3-methoxy-phenyl}-4-methyl-1,4-dihydrotetrazol-5-one]
≤ 30%: Pyrenophora teres; Test Example 3, 500 ppm | Pyrenophora teres; Test Example 9, 200 ppm | Sclerotinia sclerotiorum; Test Example 4, 500 ppm | Sclerotinia sclerotiorum; Test Example 10, 200 ppm | Septoria tritici; Test Example 5, 500 ppm | Septoria tritici; Test Example 11, 200 ppm | Sphaerotheca fuliginea; Test Example 6, 500 ppm | Sphaerotheca fuliginea; Test Example 12, 200 ppm | Rhynchosporium secalis

CCON=C(C)c1ccc(OCc2c(OC)cccc2-n2nnn(C)c2=O)c(C)c1 [Compound 7, 1-{2-[2-methyl-4-(1-ethoxyimino-ethyl)-phenoxymethyl]-3-methoxy-phenyl}-4-methyl-1,4-dihydrotetrazol-5-one]
≤ 30%: Pyrenophora teres; Test Example 3, 500 ppm | Pyrenophora teres; Test Example 9, 200 ppm | Sclerotinia sclerotiorum; Test Example 4, 500 ppm | Sclerotinia sclerotiorum; Test Example 10, 200 ppm | Septoria tritici; Test Example 5, 500 ppm | Septoria tritici; Test Example 11, 200 ppm | Sphaerotheca fuliginea; Test Example 6, 500 ppm | Sphaerotheca fuliginea; Test Example 12, 200 ppm | Rhynchosporium secalis

CCc1cccc(-n2nnn(C)c2=O)c1COc1ccc(C(C)=NOC)cc1C [Compound 12, 1-{2-[2-methyl-4-(1-methoxyimino-ethyl)-phenoxymethyl]-3-ethyl-phenyl}-4-methyl-1,4-dihydrotetrazol-5-one]
≤ 30%: Pyrenophora teres; Test Example 3, 500 ppm | Pyrenophora teres; Test Example 9, 200 ppm | Sclerotinia sclerotiorum; Test Example 4, 500 ppm | Sclerotinia sclerotiorum; Test Example 10, 200 ppm | Septoria tritici; Test Example 5, 500 ppm | Septoria tritici; Test Example 11, 200 ppm | Sphaerotheca fuliginea; Test Example 6, 500 ppm | Sphaerotheca fuliginea; Test Example 12, 200 ppm | Rhynchosporium secalis

CON=C(C)c1ccc(OCc2c(C3CC3)cccc2-n2nnn(C)c2=O)c(C)c1 [Compound 13, 1-{2-[2-methyl-4-(1-methoxyimino-ethyl)-phenoxymethyl]-3-cyclopropyl-phenyl}-4-methyl-1,4-dihydrotetrazol-5-one]
≤ 30%: Pyrenophora teres; Test Example 3, 500 ppm | Pyrenophora teres; Test Example 9, 200 ppm | Sclerotinia sclerotiorum; Test Example 4, 500 ppm | Sclerotinia sclerotiorum; Test Example 10, 200 ppm | Septoria tritici; Test Example 5, 500 ppm | Septoria tritici; Test Example 11, 200 ppm | Sphaerotheca fuliginea; Test Example 6, 500 ppm | Sphaerotheca fuliginea; Test Example 12, 200 ppm | Rhynchosporium secalis

C=CCON=C(C)c1ccc(OCc2c(C)cccc2-n2nnn(C)c2=O)c(C)c1 [Compound 17, 1-{2-[2-methyl-4-{1-(2-allyloxy)imino-ethyl)-phenoxymethyl]-3-methyl-phenyl}-4-methyl-1,4-dihydrotetrazol-5-one]
≤ 30%: Pyrenophora teres; Test Example 3, 500 ppm | Pyrenophora teres; Test Example 9, 200 ppm | Sclerotinia sclerotiorum; Test Example 4, 500 ppm | Sclerotinia sclerotiorum; Test Example 10, 200 ppm | Septoria tritici; Test Example 5, 500 ppm | Septoria tritici; Test Example 11, 200 ppm | Sphaerotheca fuliginea; Test Example 6, 500 ppm | Sphaerotheca fuliginea; Test Example 12, 200 ppm | Rhynchosporium secalis

CC(=NOCc1ccccc1Cl)c1ccc(OCc2c(C)cccc2-n2nnn(C)c2=O)c(C)c1 [Compound 71]
≤ 30%: Pyrenophora teres; Test Example 3, 500 ppm | Septoria tritici; Test Example 5, 500 ppm | Sphaerotheca fuliginea; Test Example 6, 500 ppm | Rhynchosporium secalis

CON=C(c1ccc(OCc2c(C)cccc2-n2nnn(C)c2=O)c(C)c1)c1ccccc1Cl [Compound 72, 1-{2-[2-methyl-4-(1-methoxyimino-1-(2-chlorophenyl)-methyl)-phenoxymethyl]-3-methyl-phenyl}-4-methyl-1,4-dihydrotetrazol-5-one]
≤ 30%: Pyrenophora teres; Test Example 3, 500 ppm | Septoria tritici; Test Example 5, 500 ppm | Sphaerotheca fuliginea; Test Example 6, 500 ppm | Rhynchosporium secalis

CON=C(c1cccc(Cl)c1)c1ccc(OCc2c(C)cccc2-n2nnn(C)c2=O)c(C)c1 [Compound 73, 1-{2-[2-methyl-4-{1-methoxyimino-1-(3-chlorophenyl)-methyl}-phenoxymethyl]-3-methyl-phenyl}-4-methyl-1,4-dihydrotetrazol-5-one]
≤ 30%: Pyrenophora teres; Test Example 3, 500 ppm | Septoria tritici; Test Example 5, 500 ppm | Sphaerotheca fuliginea; Test Example 6, 500 ppm | Rhynchosporium secalis

CC(=NOCc1ccc(Cl)cc1)c1ccc(OCc2c(C)cccc2-n2nnn(C)c2=O)c(C)c1 [Compound 76]
≤ 30%: Pyrenophora teres; Test Example 3, 500 ppm | Septoria tritici; Test Example 5, 500 ppm | Sphaerotheca fuliginea; Test Example 6, 500 ppm | Rhynchosporium secalis

CON=C(c1cccc(C)c1)c1ccc(OCc2c(C)cccc2-n2nnn(C)c2=O)c(C)c1 [Compound 78, 1-{2-[2-methyl-4-{1-methoxyimino-1-(3-methylphenyl)-methyl}-phenoxymethyl]-3-methyl-phenyl}-4-methyl-1,4-dihydrotetrazol-5-one]
≤ 30%: Pyrenophora teres; Test Example 3, 500 ppm | Septoria tritici; Test Example 5, 500 ppm | Sphaerotheca fuliginea; Test Example 6, 500 ppm | Rhynchosporium secalis

CON=C(c1cccc(OC)c1)c1ccc(OCc2c(C)cccc2-n2nnn(C)c2=O)c(C)c1 [Compound 79, 1-{2-[2-methyl-4-{1-methoxyimino-1-(3-methoxyphenyl)-methyl}-phenoxymethyl]-3-methyl-phenyl}-4-methyl-1,4-dihydrotetrazol-5-one]
≤ 30%: Pyrenophora teres; Test Example 3, 500 ppm | Septoria tritici; Test Example 5, 500 ppm | Sphaerotheca fuliginea; Test Example 6, 500 ppm | Rhynchosporium secalis

— patent publication US9560850B2, “Tetrazolinone compound and use thereof” (SUMITOMO CHEMICAL COMPANY, LIMITED, priority 2012, dated 2017)
